Assay results: patent US20080312187A1, “PHOSPHOINOSITIDE MODULATION FOR THE TREATMENT OF ALZHEIMER'S DISEASE” (priority 2005, published 2008)
At least one structure is not confirmed: it was looked up by name or label, or the drawing left a doubt.

Assays:
full-length APP (FL-APP) = test: Steady-state full-length APP by Western blot in treated HeLa APPsw cells; type: cell-based, human; conditions: Western blot analysis
Method: Full length APP and total Aβ biogenesis are not affected in treated cells. Modulation of PIP2 levels correlates with Aβ42 biogenesis. HeLa cells stably overexpressing the Swedish variant of human APP were treated with either control (DMSO), PLC inhibitor edelfosine (EDEL) or its active analog miltefosine (MILT). Steady-state PIP2 levels were determined by HPLC.

α-secretase (sAPPα) = test: Secreted APP ectodomain generated by α-secretase (sAPPα) in conditioned media of HeLa APPsw cells; type: cell-based, human; conditions: HeLa cells stably expressing APPsw
Method: (§1) FIG. 3A-F. PIP2 levels modulate Aβ biogenesis via two mechanisms. PIP2 levels modulate the release of soluble APP ectodomain into the medium. HeLa cells stably expressing APPsw were treated with either PLC inhibitors (EDEL, MILT) or PLC activator (M3M). Conditioned cell media were analyzed for secreted APP ectodomains generated by α-(sAPPα) (A) and β-secretase (sAPPβ) (B) cleavage. Aβ42 (D) and total Aβ biogenesis (C) in HEK293 cells transiently transfected with C99, C-terminal stub of APP that serves as a direct γ-secretase substrate, in the presence of PIP2 level modulator, EDEL. Aβ42 (F) and total Aβ biogenesis (E) in HEK293 cells transiently transfected with C99, C-terminal stub of APP that serves as a direct γ-secretase substrate, in the presence of PIP2 level modulator, M3M.
(§2) PIP2 levels modulate Aβ biogenesis via two distinct mechanisms. The metabolites of PIP2, including IP3 and DAG, have been implicated in APP processing pathways (69, 70, 71). Under normal conditions, PIP2 hydrolysis (to generate IP3 and DAG) favors the generation of α-secretase-generated secreted APP ectodomain (sAPPα). […] To more clearly define the role of PIP2 in modulating γ-secretase activity (e.g. Aβ42), we next expressed an APP-C99 construct, an ectopic γ-secretase substrate which resembles β-secretase-generated, membrane-associated APP stub in heterologous cells.

β-secretase (sAPPβ) = test: Secreted APP ectodomain generated by β-secretase (sAPPβ) in conditioned media of HeLa APPsw cells; type: cell-based, human; conditions: HeLa cells stably expressing APPsw
Method: as §1, §2

[1] = tested on: presenilin/γ-secretase (Aβ42); test: Aβ42 biogenesis in HEK293 cells transiently transfected with C99 (direct γ-secretase substrate); type: cell-based
Method: as §1, §2

PSAPP mice = test: Radial-arm water-maze test in PSAPP mice; type: in vivo, mouse; conditions: PSAPP mice at 3 months of age, oral 1 mg/kg, n=3 per group
PIP2 turnover = PIP2 turnover by lipid kinase/TLC analysis in HEK293 cells expressing FAD mutant PS1; type: cell-based; conditions: HEK293 cells with FAD mutant (ΔE9, L286V) PS1; pretreated 6 hours
Aβ42 = Aβ42 in FAD cells (various cell lines); type: cell-based

For CCCCCCCCCCCCCCCCCCOCC(COP(=O)([O-])OCC[N+](C)(C)C)OC (stereo not shown) [edelfosine, Edelfosine], the “effect on steady-state levels of full-length APP (FL-APP)” value (full-length APP (FL-APP)) was “No significant effects”, the sAPPα generation (α-secretase (sAPPα)) was “increases in sAPPα generation” and the sAPPβ secretion (β-secretase (sAPPβ)) was “reduction in sAPPβ secretion”. For the same compound, the “effect on Aβ42 in C99-transfected cells” value [1] was “Aβ42-reducing activity”, the “memory retention in radial-arm water-maze” value (PSAPP mice) was “improves memory retention” and the “FAD-associated reduction in PIP2 turnover” value (PIP2 turnover) was “reverses FAD-associated reduction in PIP2 turnover”. The “Aβ42 observed in FAD cells” value (Aβ42) was “reduction of Aβ42”.
